Test results as given in paper doi:10.64898/2025.12.23.696151.

By UniProt entry, the sequences of proteins in these tests, tags left out. Where a name states a change or a piece, a line headed by the entry shows the natural chain unless it says otherwise.
UniProt Q460N5, whole entry: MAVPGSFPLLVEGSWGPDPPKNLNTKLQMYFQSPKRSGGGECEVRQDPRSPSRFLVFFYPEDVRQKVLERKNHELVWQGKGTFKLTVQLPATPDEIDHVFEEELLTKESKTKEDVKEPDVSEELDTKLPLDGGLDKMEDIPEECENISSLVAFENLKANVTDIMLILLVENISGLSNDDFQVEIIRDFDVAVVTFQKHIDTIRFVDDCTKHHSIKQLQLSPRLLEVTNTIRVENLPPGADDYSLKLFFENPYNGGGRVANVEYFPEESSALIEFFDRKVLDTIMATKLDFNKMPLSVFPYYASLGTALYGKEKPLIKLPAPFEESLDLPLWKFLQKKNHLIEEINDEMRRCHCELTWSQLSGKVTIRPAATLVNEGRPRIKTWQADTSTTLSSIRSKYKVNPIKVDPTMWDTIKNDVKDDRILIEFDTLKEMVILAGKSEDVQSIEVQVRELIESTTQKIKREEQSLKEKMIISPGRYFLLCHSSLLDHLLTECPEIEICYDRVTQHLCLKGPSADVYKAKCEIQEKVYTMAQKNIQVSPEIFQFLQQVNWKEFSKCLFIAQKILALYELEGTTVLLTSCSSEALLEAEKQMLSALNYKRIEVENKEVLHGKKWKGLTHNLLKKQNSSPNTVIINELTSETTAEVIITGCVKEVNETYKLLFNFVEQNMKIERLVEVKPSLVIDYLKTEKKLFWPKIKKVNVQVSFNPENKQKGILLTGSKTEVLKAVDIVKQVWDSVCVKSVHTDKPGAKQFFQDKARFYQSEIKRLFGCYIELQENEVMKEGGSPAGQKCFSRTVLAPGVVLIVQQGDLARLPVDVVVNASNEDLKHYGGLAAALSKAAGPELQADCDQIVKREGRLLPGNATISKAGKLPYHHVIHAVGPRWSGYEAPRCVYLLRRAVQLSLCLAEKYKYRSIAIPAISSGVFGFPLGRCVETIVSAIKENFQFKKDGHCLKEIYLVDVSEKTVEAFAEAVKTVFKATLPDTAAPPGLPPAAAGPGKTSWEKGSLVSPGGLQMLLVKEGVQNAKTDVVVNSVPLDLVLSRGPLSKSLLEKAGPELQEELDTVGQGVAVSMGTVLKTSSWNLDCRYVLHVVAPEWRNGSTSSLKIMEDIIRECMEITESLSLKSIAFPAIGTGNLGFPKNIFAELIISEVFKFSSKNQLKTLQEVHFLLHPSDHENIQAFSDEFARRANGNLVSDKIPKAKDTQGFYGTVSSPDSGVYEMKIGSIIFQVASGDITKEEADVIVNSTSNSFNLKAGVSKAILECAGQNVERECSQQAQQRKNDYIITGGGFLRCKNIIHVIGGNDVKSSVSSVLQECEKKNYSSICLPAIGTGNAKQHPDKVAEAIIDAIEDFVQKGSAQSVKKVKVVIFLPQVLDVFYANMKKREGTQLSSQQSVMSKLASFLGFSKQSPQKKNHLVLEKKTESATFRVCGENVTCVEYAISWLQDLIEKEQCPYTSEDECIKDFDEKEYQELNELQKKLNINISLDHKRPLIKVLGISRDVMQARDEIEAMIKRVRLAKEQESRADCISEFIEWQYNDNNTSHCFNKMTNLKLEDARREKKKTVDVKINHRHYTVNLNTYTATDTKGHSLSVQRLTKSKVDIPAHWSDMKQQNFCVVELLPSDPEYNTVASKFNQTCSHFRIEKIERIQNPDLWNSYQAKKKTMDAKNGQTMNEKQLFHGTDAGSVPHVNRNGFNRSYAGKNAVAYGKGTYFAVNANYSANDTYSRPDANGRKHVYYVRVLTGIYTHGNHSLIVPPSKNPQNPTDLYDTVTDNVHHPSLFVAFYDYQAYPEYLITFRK

B1: JCAD (protein, UniProt Q9P266 1-1359)
chain: MYSVEDLLISHGYKLSRDPPASREDNPKGRQAARTGTRAGQGLQNGHEDGPAALAHRKTSAGKGHVSDSESRRSTPRGHGEPQSTSASRTSEAGFCNQPPSAWSSHPPTGNDQAYRRRGRQEARSQKPREHENLEARGMAQAHSLPVHVREGPWEVGGRSEHVMKKPVWEEELRMSGPAKWQNVSLESWNQPRKLGRQMSDGDGERLFQDLYPFIQGEHVLNSQNKGKSRSLPRVLSPESLSCTEIPIPLNERHSPKMPPYPPTCAPNLDSTRNSEKSGCSAPFPRPKFGRPLKPPSYSSHQQSRGGADSSDSQDSQQMDAYVPRHELCLSDPGLEPPVYVPPPSYRSPPQNIPNPYLEDTVPINVCGGHSQQQSPTEKAGASGQPPSGPPGTGNEYGVSPRLPQGLPAHPRPVTAYDGFVQYIPFDDPRLRHFKLAQPQGFCEDIKLDDKSYNSSPVTAQEPAHGGMQPDGAIWNPQSLIPPSGDERGLVLADSSPRWLWGQPPGDGENSGLPNQRDRCVARGQWPDVRGSQHGHTGRQVSSPYSQGESTCETQTKLKKFQTGTRTKKSSKKKMNETIFCLVSIPVKSESHLPDRDMDNNDLKPSADQKNGSDKSPALQEQSLLSMSSTDLELQALTGSMGGRTEFQKQDLGEPEEDRQTNDLSFIHLTKHRELKHSGSWPGHRYRDQQTQTSFSEEPQSSQLLPGAKLGGPSRAALSPKCSDPAASEAQTHTAFPTGDHKQRPSARNLKGHRSLSPSSNSAFSRTSLSVDQAPTPKAGRSQPCVDVHGLGAHPGPKREVVKGEPTGPCNSKQLFGQFLLKPVSRRPWDLISQLESFNKELQEEEESSSSSSSSSSSSEESEAEPQQENRAHCRQEDVGFRGNSPEMRVEPQPRMWVPESPVCRSGRGESKSESWSEELQPGHPRAWPPSPGRFRVEEGGGAPFCSADGSTSAEKRHLEVSNGMDELAGSPFPVTRMSSRSSDAKPLPASYPAEPREPQESPKITSAFSSVKPSEAVPRKFDSGGERGAGLPLSLSNKNRGLSAPDLRSVGLTPGQEQGASELEGSLGEASTIEIPPGESLQARAARILGIEVAVESLLPGIRRAGQNQPAEPDASACTPESPQEELLSRPAPADVPRVSTDAFYGRRKCGWTKSPLFVGDRDSARRAPQAFEHSDVDGVVTSTDPVPEPEPSPLESKFFEQKDVETKPPFRSTLFHFVERTPSVAGSEKRLRSPSKVIESLQEKLASPPRRADPDRLMRMKEVSSVSRMRVLSFRNADSQEDAEELKATTRGQAGLPGGLVSPGSGDRAQRLGHSLSVSKDSISREEKEHPAAQKEKSMDQDFWCPDSYDPSRVERV
B2: SLC26A2 (protein, UniProt P50443 1-739)
chain: MSSESKEQHNVSPRDSAEGNDSYPSGIHLELQRESSTDFKQFETNDQCRPYHRILIERQEKSDTNFKEFVIKKLQKNCQCSPAKAKNMILGFLPVLQWLPKYDLKKNILGDVMSGLIVGILLVPQSIAYSLLAGQEPVYGLYTSFFASIIYFLLGTSRHISVGIFGVLCLMIGETVDRELQKAGYDNAHSAPSLGMVSNGSTLLNHTSDRICDKSCYAIMVGSTVTFIAGVYQVAMGFFQVGFVSVYLSDALLSGFVTGASFTILTSQAKYLLGLNLPRTNGVGSLITTWIHVFRNIHKTNLCDLITSLLCLLVLLPTKELNEHFKSKLKAPIPIELVVVVAATLASHFGKLHENYNSSIAGHIPTGFMPPKVPEWNLIPSVAVDAIAISIIGFAITVSLSEMFAKKHGYTVKANQEMYAIGFCNIIPSFFHCFTTSAALAKTLVKESTGCHTQLSGVVTALVLLLVLLVIAPLFYSLQKSVLGVITIVNLRGALRKFRDLPKMWSISRMDTVIWFVTMLSSALLSTEIGLLVGVCFSIFCVILRTQKPKSSLLGLVEESEVFESVSAYKNLQIKPGIKIFRFVAPLYYINKECFKSALYKQTVNPILIKVAWKKAAKRKIKEKVVTLGGIQDEMSVQLSHDPLELHTIVIDCSAIQFLDTAGIHTLKEVRRDYEAIGIQVLLAQCNPTVRDSLTNGEYCKKEEENLLFYSVYEAMAFAEVSKNQKGVCVPNGLSLSSD
B3: HDAC8 (protein, UniProt Q9BY41 1-377)
chain: MEEPEEPADSGQSLVPVYIYSPEYVSMCDSLAKIPKRASMVHSLIEAYALHKQMRIVKPKVASMEEMATFHTDAYLQHLQKVSQEGDDDHPDSIEYGLGYDCPATEGIFDYAAAIGGATITAAQCLIDGMCKVAINWSGGWHHAKKDEASGFCYLNDAVLGILRLRRKFERILYVDLDLHHGDGVEDAFSFTSKVMTVSLHKFSPGFFPGTGDVSDVGLGKGRYYSVNVPIQDGIQDEKYYQICESVLKEVYQAFNPKAVVLQLGADTIAGDPMCSFNMTPVGIGKCLKYILQWQLATLILGGGGYNLANTARCWTYLTGVILGKTLSSEIPDHEFFTAYGPDYVLEITPSCRPDRNEPHRIQQILNYIKGNLKHVV
B4: NCAPG2 (protein, UniProt Q86XI2 1-1143)
chain: MEKRETFVQAVSKELVGEFLQFVQLDKEASDPFSLNELLDELSRKQKEELWQRLKNLLTDVLLESPVDGWQVVEAQGEDNMETEHGSKMRKSIEIIYAITSVILASVSVINESENYEALLECVIILNGILYALPESERKLQSSIQDLCVTWWEKGLPAKEDTGKTAFVMLLRRSLETKTGADVCRLWRIHQALYCFDYDLEESGEIKDMLLECFININYIKKEEGRRFLSCLFNWNINFIKMIHGTIKNQLQGLQKSLMVYIAEIYFRAWKKASGKILEAIENDCIQDFMFHGIHLPRRSPVHSKVREVLSYFHHQKKVRQGVEEMLYRLYKPILWRGLKARNSEVRSNAALLFVEAFPIRDPNLHAIEMDSEIQKQFEELYSLLEDPYPMVRSTGILGVCKITSKYWEMMPPTILIDLLKKVTGELAFDTSSADVRCSVFKCLPMILDNKLSHPLLEQLLPALRYSLHDNSEKVRVAFVDMLLKIKAVRAAKFWKICPMEHILVRLETDSRPVSRRLVSLIFNSFLPVNQPEEVWCERCVTLVQMNHAAARRFYQYAHEHTACTNIAKLIHVIRHCLNACIQRAVREPPEDEEEEDGREKENVTVLDKTLSVNDVACMAGLLEIIVILWKSIDRSMENNKEAKLYTINKFASVLPEYLKVFKDDRCKIPLFMLMSFMPASAVPPFSCGVISTLRSREEGAVDKSYCTLLDCLCSWGQVGHILELVDNWLPTEHAQAKSNTASKGRVQIHDTRPVKPELALVYIEYLLTHPKNRECLLSAPRKKLNHLLKALETSKADLESLLQTPGGKPRGFSEAAAPRAFGLHCRLSIHLQHKFCSEGKVYLSMLEDTGFWLESKILSFIQDQEEDYLKLHRVIYQQIIQTYLTVCKDVVMVGLGDHQFQMQLLQRSLGIMQTVKGFFYVSLLLDILKEITGSSLIQKTDSDEEVAMLLDTVQKVFQKMLECIARSFRKQPEEGLRLLYSVQRPLHEFITAVQSRHTDTPVHRGVLSTLIAGPVVEISHQLRKVSDVEELTPPEHLSDLPPFSRCLIGIIIKSSNVVRSFLDELKACVASNDIEGIVCLTAAVHIILVINAGKHKSSKVREVAATVHRKLKTFMEITLEEDSIERFLYESSSRTLGELLNS

Biological target: PARP14-FLAG-His (UniProt Q460N5)
Assay: affinity purification with mass spectrometry

Row | Molecule | binding
1 | RCOR3 (from UniProt Q9P2K3 1-495) | binds
2 | DNMBP (from UniProt Q6XZF7 1-1577) | binds
3 | THBS3 (from UniProt P49746 23-956) | binds
4 | B1 | binds
5 | B2 | binds
6 | B3 | binds
7 | B4 | binds

No constants are given. Whether binding was seen depends on the method and setting. Binding seen in cells or lysates may run through a third protein. Here binding means that the protein was enriched with, or labelled near, the bait; the list need not be complete.
